Some results were stated once for a whole list of compounds, not compound by compound.
System: COX-2/COX-1
Assay: COX-2 selectivity: ratio of IC50 in the human cell-based COX-1 assay to the COX-2 assay
Conditions: ratio in terms of IC50 value of COX-1 inhibition (washed human platelets, TXB2) to COX-2 inhibition (HUVEC, 6-keto-PGF1α)

SMILES: C(=C\c1nc2ccccc2n1-c1ccccc1)/c1ccccc1 [Example 1, (E)-1-Phenyl-2-styryl-1H-benzimidazole]
- COX-2/COX-1 inhibition ratio: more than 10

SMILES: O=[N+]([O-])c1ccc2c(c1)nc(/C=C/c1ccccc1)n2-c1ccccc1 [Example 14, (E)-5-Nitro-1-phenyl-2-styryl-1H-benzimidazole]
- COX-2/COX-1 inhibition ratio: more than 10

SMILES: N#Cc1ccc2c(c1)nc(/C=C/c1ccccc1)n2-c1ccccc1 [Example 17, (E)-5-Cyano-1-phenyl-2-styryl-1H-benzimidazole]
- COX-2/COX-1 inhibition ratio: more than 10

SMILES: C(=C\C1CCCC1)/c1nc2ccccc2n1-c1ccccc1.Cl [Example 21, (E)-2-(2-Cyclopentylvinyl)-1-phenyl-1H-benzimidazole hydrochloride]
- COX-2/COX-1 inhibition ratio: more than 10

From EP0846689A1, “Benzimidazole compounds” (PFIZER INC., priority 1996, dated 1998)
